No constants are given. Whether binding was seen depends on the method and setting. In cells and extracts the contact can be indirect. Some results given as binding are weak or reduced against the parent protein; the word gives no strength. Sequences can lack the tags named with a protein.

Binding data for one molecule are collected here from article PMC3521718, “Histone Deacetylase HDA6 Is Functionally Associated with AS1 in Repression of KNOX Genes in Arabidopsis” (PLoS Genetics, 2012).

The target in this assay is T1, … LEAVES 2 (AS2) fused to a YFP fragment for BiFC (AS2-YN, AS2-YC) (Arabidopsis thaliana) (UniProt O04479).
T1 sequence: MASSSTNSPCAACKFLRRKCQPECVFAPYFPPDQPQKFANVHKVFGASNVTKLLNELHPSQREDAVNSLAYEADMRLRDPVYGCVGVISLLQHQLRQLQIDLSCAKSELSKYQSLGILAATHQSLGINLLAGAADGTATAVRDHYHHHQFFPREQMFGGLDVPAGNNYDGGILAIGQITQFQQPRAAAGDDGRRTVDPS
As to the kind of experiment: split reporter; BiFC with YN and YC fusions co-delivered by Agrobacterium GV3101 into N. benthamiana leaves; confocal microscopy.

B1: … LEAVES 2 (AS2) fused to a YFP fragment for BiFC (AS2-YN, AS2-YC) (protein, UniProt O04479 1-199)
chain: T1 sequence
With B1, the binding entry was “binds”.
